{"sequences": {"note": "By UniProt entry, the sequences of proteins in these tests, tags left out. Where a name states a change or a piece, a line headed by the entry shows the natural chain unless it says otherwise.", "UniProt Q12809": "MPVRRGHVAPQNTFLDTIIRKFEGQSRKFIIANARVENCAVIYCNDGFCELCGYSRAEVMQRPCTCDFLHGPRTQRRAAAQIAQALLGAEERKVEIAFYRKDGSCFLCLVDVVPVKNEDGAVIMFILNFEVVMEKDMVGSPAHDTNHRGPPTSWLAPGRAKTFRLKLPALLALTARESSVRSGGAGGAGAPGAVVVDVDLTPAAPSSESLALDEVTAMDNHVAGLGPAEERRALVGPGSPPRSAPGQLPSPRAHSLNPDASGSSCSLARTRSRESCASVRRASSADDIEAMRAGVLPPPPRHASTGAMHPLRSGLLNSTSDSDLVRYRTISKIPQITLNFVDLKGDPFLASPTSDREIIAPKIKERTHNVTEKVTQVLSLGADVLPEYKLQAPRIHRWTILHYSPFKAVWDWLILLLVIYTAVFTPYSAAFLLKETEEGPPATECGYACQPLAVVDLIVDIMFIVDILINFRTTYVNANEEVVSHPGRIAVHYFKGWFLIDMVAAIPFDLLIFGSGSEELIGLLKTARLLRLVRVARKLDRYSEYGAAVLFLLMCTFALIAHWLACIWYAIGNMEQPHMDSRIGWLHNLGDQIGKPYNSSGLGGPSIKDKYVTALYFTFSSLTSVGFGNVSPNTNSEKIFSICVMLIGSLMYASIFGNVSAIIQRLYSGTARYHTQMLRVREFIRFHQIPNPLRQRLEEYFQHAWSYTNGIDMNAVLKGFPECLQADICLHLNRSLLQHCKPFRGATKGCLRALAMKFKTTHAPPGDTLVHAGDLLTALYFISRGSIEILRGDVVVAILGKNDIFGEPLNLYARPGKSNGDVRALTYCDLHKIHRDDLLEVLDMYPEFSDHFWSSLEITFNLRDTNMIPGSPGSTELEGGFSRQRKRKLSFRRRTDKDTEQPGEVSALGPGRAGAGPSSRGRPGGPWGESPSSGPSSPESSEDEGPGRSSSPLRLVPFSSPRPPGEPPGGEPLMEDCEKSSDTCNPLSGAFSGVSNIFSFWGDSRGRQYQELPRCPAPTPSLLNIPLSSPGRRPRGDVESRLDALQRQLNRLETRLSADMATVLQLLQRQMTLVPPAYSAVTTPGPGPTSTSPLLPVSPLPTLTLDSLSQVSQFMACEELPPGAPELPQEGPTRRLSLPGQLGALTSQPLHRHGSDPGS"}, "source": "paper PMC4336329", "about": "(PLoS ONE, 2015)", "key": {"[1]": {"molecular_target": "T1, human ether-à-go-go-related gene (hERG) potassium channel (human, UniProt Q12809)", "assay": "primary screen, population patch clamp on CHO cells stably expressing hERG; higher = less effect of the substance", "method": "(§1) Briefly, Chinese hamster ovary (CHO) cells stably expressing the hERG channel were dislodged from tissue culture flasks and dispensed into PPC plates. […] During the recording, background leak currents were estimated by a 100 ms step to -80 mV from an initial holding potential of -70 mV and subtracted from the subsequent current measurement. The campaign was conducted in two phases using slight differences in recording protocol. In the first phase, the initial voltage pulse used a 100 ms step to -30 mV from a holding potential of -70 mV, a 2 s conditioning step to +25 mV, and a 2 s test step to -30 mV. During the second phase of the screen, the potential during the conditioning step was raised to +45 mV. In both phases of the campaign, a secondary voltage pulse was applied using the same parameters as the second phase initial pulse. The initial and secondary pulses were applied in the absence of compound, and upon application of 1 μM and 10 μM test concentrations. Small molecule effects on hERG current density were quantified by measuring the peak tail current during the secondary voltage pulse prior to compound application and dividing by the amplitude following each test concentration."}, "[2]": {"molecular_target": "T1, human ether-à-go-go-related gene (hERG) potassium channel", "assay": "primary screen, population patch clamp on CHO cells stably expressing hERG; higher = less effect of the substance", "method": "as §1, with “Small molecule effects on hERG current density were quantified by measuring the peak tail current during the secondary voltage pulse prior to compound application and dividing by the amplitude following each test concentration.” left out", "remark": "listed apart in the source"}}, "note": "Most of the strong results are listed elsewhere, so they are rarer here than in the full data. Effects have a minus sign here.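 Throughout, for hERG current change (%, negative = inhibition) at 10uM: peak tail current of the secondary pulse compared with the same well before compound.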"}
{"smiles": "CCC(C)(CN(C)C)OC(=O)c1ccccc1.Cl", "note": "(centres unmarked)", "values": [{"measurement": "hERG current change (%, negative = inhibition) at 1uM", "setting": "[1]", "value": 8.68, "unit": "%"}, {"measurement": "hERG current change (%, negative = inhibition) at 10uM", "setting": "[2]", "value": 4.72, "unit": "%"}]}
